Assay results published in the supplement of paper PMC10077471.
Whole data set: some 1,900 compounds, median “excess over highest single agent (ExcessHSA) synergy score, 6x6 matrix” near -83, cut for the lowest 2% near -370. The list shows a part of the results.

What follows are molecules tested on NCI-H446 (assay: excess over highest single agent (ExcessHSA) synergy score, 6x6 matrix; higher = less synergy (more negative = stronger synergy)). Conditions: 72 h; CellTiter-Glo viability.

| Compound | excess over highest single agent |
| --- | --- |
| CCOC(=O)C1=C(O)C(=O)N(Cc2ccccc2)C1 + Cc1sc2c(c1C)C(c1ccc(Cl)cc1)=N[C@@H](CC(=O)OC(C)(C)C)c1nnc(C)n1-2 [NCGC00250412-19] | -90.7 |
| O=C(c1cncc(Br)c1)N1CCC(N2CCCC2)CC1 + Cc1sc2c(c1C)C(c1ccc(Cl)cc1)=N[C@@H](CC(=O)OC(C)(C)C)c1nnc(C)n1-2 [NCGC00250412-19] | -123 |
| Cc1cnc(C(=O)O)c[n+]1[O-] + Cc1sc2c(c1C)C(c1ccc(Cl)cc1)=N[C@@H](CC(=O)OC(C)(C)C)c1nnc(C)n1-2 [NCGC00250412-19] | -118 |
| O=C(O)C1(C(=O)O)CCC1.[NH2-].[NH2-].[Pt+2] + Cc1sc2c(c1C)C(c1ccc(Cl)cc1)=N[C@@H](CC(=O)OC(C)(C)C)c1nnc(C)n1-2 [NCGC00250412-19] | -79.9 |
| Cc1cccc(-c2nn(C(=S)Nc3ccccc3)cc2-c2ccnc3ccccc23)n1 + Cc1sc2c(c1C)C(c1ccc(Cl)cc1)=N[C@@H](CC(=O)OC(C)(C)C)c1nnc(C)n1-2 [NCGC00250412-19] | 108 |
| Nc1nc2[nH]cc(CCc3ccc(C(=O)N[C@@H](CCC(=O)O)C(=O)O)cc3)c2c(=O)[nH]1 + Cc1sc2c(c1C)C(c1ccc(Cl)cc1)=N[C@@H](CC(=O)OC(C)(C)C)c1nnc(C)n1-2 [NCGC00250412-19] | 29.8 |
| CC(C)Cc1ccc(C(C)C(=O)O)cc1 (centres undefined) + Cc1sc2c(c1C)C(c1ccc(Cl)cc1)=N[C@@H](CC(=O)OC(C)(C)C)c1nnc(C)n1-2 [NCGC00250412-19] | -85.8 |
| CCOC(=O)Nc1ccc(NCc2ccc(F)cc2)nc1N + Cc1sc2c(c1C)C(c1ccc(Cl)cc1)=N[C@@H](CC(=O)OC(C)(C)C)c1nnc(C)n1-2 [NCGC00250412-19] | -130 |
| COc1ccc(C(CN(C)C)C2(O)CCCCC2)cc1 (centres undefined) + Cc1sc2c(c1C)C(c1ccc(Cl)cc1)=N[C@@H](CC(=O)OC(C)(C)C)c1nnc(C)n1-2 [NCGC00250412-19] | 67.3 |
| CC1COc2c(N3CCN(C)CC3)c(F)cc3c(=O)c(C(=O)O)cn1c23 (centres undefined) + Cc1sc2c(c1C)C(c1ccc(Cl)cc1)=N[C@@H](CC(=O)OC(C)(C)C)c1nnc(C)n1-2 [NCGC00250412-19] | -88.4 |
| CC(=O)SCC(Cc1ccccc1)C(=O)NCC(=O)OCc1ccccc1 (centres undefined) + Cc1sc2c(c1C)C(c1ccc(Cl)cc1)=N[C@@H](CC(=O)OC(C)(C)C)c1nnc(C)n1-2 [NCGC00250412-19] | 18.4 |
| O=C(Oc1ccc([N+](=O)[O-])cc1)N1CCN(Cc2cccc(Oc3ccccc3)c2)CC1 + Cc1sc2c(c1C)C(c1ccc(Cl)cc1)=N[C@@H](CC(=O)OC(C)(C)C)c1nnc(C)n1-2 [NCGC00250412-19] | -256 |
| Cn1c(Nc2ccc(C(F)(F)F)cc2)nc2cc(Oc3ccnc(-c4ncc(C(F)(F)F)[nH]4)c3)ccc21 + Cc1sc2c(c1C)C(c1ccc(Cl)cc1)=N[C@@H](CC(=O)OC(C)(C)C)c1nnc(C)n1-2 [NCGC00250412-19] | -155 |
| COc1cc(Oc2ccnc3cc(OC)c(OC)cc23)ccc1NC(=O)NC(C)c1nccs1 (centres undefined) + Cc1sc2c(c1C)C(c1ccc(Cl)cc1)=N[C@@H](CC(=O)OC(C)(C)C)c1nnc(C)n1-2 [NCGC00250412-19] | -83.5 |
| COC(=O)C1=C(C)NC(C)=C(C(=O)OC(C)C)C1c1cccc2nonc12 (centres undefined) + Cc1sc2c(c1C)C(c1ccc(Cl)cc1)=N[C@@H](CC(=O)OC(C)(C)C)c1nnc(C)n1-2 [NCGC00250412-19] | -199 |
| CCN1C[C@]2(OC(=O)c3ccccc3NC(C)=O)CC[C@H](OC)[C@@]34[C@H]5C[C@@H]6[C@@H](OC)C[C@](O)([C@@H](C[C@@H]23)[C@@H]14)[C@@]5(O)[C@@H]6OC + Cc1sc2c(c1C)C(c1ccc(Cl)cc1)=N[C@@H](CC(=O)OC(C)(C)C)c1nnc(C)n1-2 [NCGC00250412-19] | -150 |
| CC1(C)CCC2=C(O1)c1ccccc1C(=O)C2=O + Cc1sc2c(c1C)C(c1ccc(Cl)cc1)=N[C@@H](CC(=O)OC(C)(C)C)c1nnc(C)n1-2 [NCGC00250412-19] | -50.6 |
| C[C@H](c1ccc(F)cc1CCCC(=O)O)N(c1cc(F)ccc1F)S(=O)(=O)c1ccc(Cl)cc1 + Cc1sc2c(c1C)C(c1ccc(Cl)cc1)=N[C@@H](CC(=O)OC(C)(C)C)c1nnc(C)n1-2 [NCGC00250412-19] | 86.1 |
| Cc1c(CCOc2ccc(C(=O)O)cc2)c2cc(Cl)ccc2n1C(c1ccccc1)c1ccccc1 + Cc1sc2c(c1C)C(c1ccc(Cl)cc1)=N[C@@H](CC(=O)OC(C)(C)C)c1nnc(C)n1-2 [NCGC00250412-19] | -12 |
| S=C(NCc1ccc2c(c1)OCO2)N1CCN(c2ncnc3c2oc2ccccc23)CC1 + Cc1sc2c(c1C)C(c1ccc(Cl)cc1)=N[C@@H](CC(=O)OC(C)(C)C)c1nnc(C)n1-2 [NCGC00250412-19] | -77.4 |

| Compound | excess over highest single agent |
| --- | --- |
| OCCN1C[C@H](O)[C@@H](O)[C@H](O)[C@H]1CO + Cc1sc2c(c1C)C(c1ccc(Cl)cc1)=N[C@@H](CC(=O)OC(C)(C)C)c1nnc(C)n1-2 [NCGC00250412-19] | -198 |
| CC(C)C(=O)Nc1ccc([N+](=O)[O-])c(C(F)(F)F)c1 + Cc1sc2c(c1C)C(c1ccc(Cl)cc1)=N[C@@H](CC(=O)OC(C)(C)C)c1nnc(C)n1-2 [NCGC00250412-19] | 20 |
| Cn1cnc([N+](=O)[O-])c1Sc1ncnc2[nH]cnc12 + Cc1sc2c(c1C)C(c1ccc(Cl)cc1)=N[C@@H](CC(=O)OC(C)(C)C)c1nnc(C)n1-2 [NCGC00250412-19] | -196 |
| CC(=O)Oc1cc2c(s1)CCN(C(C(=O)C1CC1)c1ccccc1F)C2 (centres undefined) + Cc1sc2c(c1C)C(c1ccc(Cl)cc1)=N[C@@H](CC(=O)OC(C)(C)C)c1nnc(C)n1-2 [NCGC00250412-19] | -100 |
| CCN(CC)CCCCNc1nc2cc(Cl)c(Cl)cc2nc1-c1ccc(-c2cccs2)s1 + Cc1sc2c(c1C)C(c1ccc(Cl)cc1)=N[C@@H](CC(=O)OC(C)(C)C)c1nnc(C)n1-2 [NCGC00250412-19] | -189 |
| O=C(O)C1=N[C@H](C(=O)O)CC(/C=C/N2c3cc(O)c(O[C@@H]4O[C@H](CO)[C@@H](O)[C@H](O)[C@H]4O)cc3C[C@H]2C(=O)O)=C1 + Cc1sc2c(c1C)C(c1ccc(Cl)cc1)=N[C@@H](CC(=O)OC(C)(C)C)c1nnc(C)n1-2 [NCGC00250412-19] | -53.2 |
| CC(C)CN(C[C@@H](O)[C@H](Cc1ccccc1)NC(=O)O[C@H]1CO[C@H]2OCC[C@H]21)S(=O)(=O)c1ccc(N)cc1 + Cc1sc2c(c1C)C(c1ccc(Cl)cc1)=N[C@@H](CC(=O)OC(C)(C)C)c1nnc(C)n1-2 [NCGC00250412-19] | -111 |
| COc1cc(/C=C/C(=O)CC(=O)/C=C/c2ccc(O)c(OC)c2)ccc1O + Cc1sc2c(c1C)C(c1ccc(Cl)cc1)=N[C@@H](CC(=O)OC(C)(C)C)c1nnc(C)n1-2 [NCGC00250412-19] | -26.7 |
| O=C(O)CSCC(=O)NC1CCSC1=O (centres undefined) + Cc1sc2c(c1C)C(c1ccc(Cl)cc1)=N[C@@H](CC(=O)OC(C)(C)C)c1nnc(C)n1-2 [NCGC00250412-19] | -73.4 |
| Cc1cc2c(F)c(Oc3ncnn4cc(OC[C@@H](C)O)c(C)c34)ccc2[nH]1 + Cc1sc2c(c1C)C(c1ccc(Cl)cc1)=N[C@@H](CC(=O)OC(C)(C)C)c1nnc(C)n1-2 [NCGC00250412-19] | 51 |
| COC(=O)c1ccc2c(C(=Nc3ccc(N(C)C(=O)CN4CCN(C)CC4)cc3)c3ccccc3)c(O)[nH]c2c1 + Cc1sc2c(c1C)C(c1ccc(Cl)cc1)=N[C@@H](CC(=O)OC(C)(C)C)c1nnc(C)n1-2 [NCGC00250412-19] | -229 |
| Cc1cc(O)c2c(c1)C(=O)c1cc(O)cc(O)c1C2=O + Cc1sc2c(c1C)C(c1ccc(Cl)cc1)=N[C@@H](CC(=O)OC(C)(C)C)c1nnc(C)n1-2 [NCGC00250412-19] | -61.2 |
| O=C1NC(=O)/C(=C/c2cccc(C(F)(F)F)c2)S1 + Cc1sc2c(c1C)C(c1ccc(Cl)cc1)=N[C@@H](CC(=O)OC(C)(C)C)c1nnc(C)n1-2 [NCGC00250412-19] | 75.6 |
| Cn1cc(-c2ccc3nnc(Sc4ccc5ncccc5c4)n3n2)cn1 + Cc1sc2c(c1C)C(c1ccc(Cl)cc1)=N[C@@H](CC(=O)OC(C)(C)C)c1nnc(C)n1-2 [NCGC00250412-19] | -80.8 |
| C=C[C@H]1CN2CCC1C[C@H]2[C@H](O)c1ccnc2ccc(OC)cc12 (some centres undefined) + Cc1sc2c(c1C)C(c1ccc(Cl)cc1)=N[C@@H](CC(=O)OC(C)(C)C)c1nnc(C)n1-2 [NCGC00250412-19] | -222 |
| Clc1ccc(Nc2nnc(Cc3ccncc3)c3ccccc23)cc1 + Cc1sc2c(c1C)C(c1ccc(Cl)cc1)=N[C@@H](CC(=O)OC(C)(C)C)c1nnc(C)n1-2 [NCGC00250412-19] | -38.8 |
| Fc1ccc([C@@H]2CCNC[C@H]2COc2ccc3c(c2)OCO3)cc1 + Cc1sc2c(c1C)C(c1ccc(Cl)cc1)=N[C@@H](CC(=O)OC(C)(C)C)c1nnc(C)n1-2 [NCGC00250412-19] | -55.7 |
| O=c1[nH]cnc2c1ncn2[C@H]1CC[C@@H](CO)O1 + Cc1sc2c(c1C)C(c1ccc(Cl)cc1)=N[C@@H](CC(=O)OC(C)(C)C)c1nnc(C)n1-2 [NCGC00250412-19] | 0.095 |
| CN(C/C=C/C#CC(C)(C)C)Cc1cccc2ccccc12 + Cc1sc2c(c1C)C(c1ccc(Cl)cc1)=N[C@@H](CC(=O)OC(C)(C)C)c1nnc(C)n1-2 [NCGC00250412-19] | 5.53 |

As entered above.
In excess over highest single agent, O=C(O)CSCC(=O)NC1CCSC1=O (centres undefined) + Cc1sc2c(c1C)C(c1ccc(Cl)cc1)=N[C@@H](CC(=O)OC(C)(C)C)c1nnc(C)n1-2 [NCGC00250412-19] has the entry -73.4
In excess over highest single agent, C=C[C@H]1CN2CCC1C[C@H]2[C@H](O)c1ccnc2ccc(OC)cc12 (some centres undefined) + Cc1sc2c(c1C)C(c1ccc(Cl)cc1)=N[C@@H](CC(=O)OC(C)(C)C)c1nnc(C)n1-2 [NCGC00250412-19] has the entry -222
In excess over highest single agent, Cn1cc(-c2ccc3nnc(Sc4ccc5ncccc5c4)n3n2)cn1 + Cc1sc2c(c1C)C(c1ccc(Cl)cc1)=N[C@@H](CC(=O)OC(C)(C)C)c1nnc(C)n1-2 [NCGC00250412-19] has the entry -80.8
